Measurements reported in PubChem BioAssay AID1224830 (NIAID, 2016).
In all, the deposit lists about 18,000 reagents; this is a part drawn at random. About 2,900 of them (16%) count as active. 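Calls are made per well; low scores hint the gene aids the LPS response, high scores that it dampens it.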 Unmarked entries are inactive. Repeated entries: four replicate wells of each siRNA pool.

- Screen: 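Genes whose knock-down alters the TNF-alpha reporter response to LPS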 (primary screen)
- Cell system: human THP-1 monocytic leukaemia cells, TNF dual-luciferase reporter clone, PMA-differentiated to macrophage-like cells
- Knock-down reagent: siRNA pool against human genes, 50 nM
- Timing: LPS for 4 h, given about 3 days after siRNA transfection
- Treatment: bacterial LPS (TLR4 ligand), 10 ng/ml
- Measurement: 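TNF firefly reporter luminescence divided by renilla, normalised to the plate median, then turned into a robust z-score for each replicate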
- Reading the numbers: TNF reporter robust z-score: higher = stronger TNF reporter response to LPS
- Rule for the call: 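a well is active when its z-score exceeds 2.8 or falls below -1.5; control wells carry no call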

| Gene | TNF reporter robust z-score |
| --- | --- |
| AKR7A3 (aldo-keto reductase family 7 member A3) | -0.4 |
| AKR7A3 (aldo-keto reductase family 7 member A3) | 0.47 |
| AKR7A3 (aldo-keto reductase family 7 member A3) | -1.6 (active) |
| AKR7A3 (aldo-keto reductase family 7 member A3) | -0.73 |
| NAA16 (N-alpha-acetyltransferase 16, NatA auxiliary subunit) | 0.45 |
| NAA16 (N-alpha-acetyltransferase 16, NatA auxiliary subunit) | -0.69 |
| NAA16 (N-alpha-acetyltransferase 16, NatA auxiliary subunit) | 0.51 |
| NAA16 (N-alpha-acetyltransferase 16, NatA auxiliary subunit) | 1.48 |
| SSC4D | -0.99 |
| SSC4D | 0.03 |
| SSC4D | -0.47 |
| SSC4D | 0.55 |
| SMIM43 (small integral membrane protein 43) | 1.6 |
| SMIM43 (small integral membrane protein 43) | 1.97 |
| SMIM43 (small integral membrane protein 43) | 0.63 |
| SMIM43 (small integral membrane protein 43) | 1.43 |
| ATG4C (autophagy related 4C cysteine peptidase) | 0.08 |
| ATG4C (autophagy related 4C cysteine peptidase) | -1.1 |
| ATG4C (autophagy related 4C cysteine peptidase) | 0.25 |
| ATG4C (autophagy related 4C cysteine peptidase) | 0.46 |
| CPT1C (carnitine palmitoyltransferase 1C) | -0.7 |
| CPT1C (carnitine palmitoyltransferase 1C) | 0.54 |
| CPT1C (carnitine palmitoyltransferase 1C) | -0.5 |
| CPT1C (carnitine palmitoyltransferase 1C) | -0.06 |
| SPINK7 (serine peptidase inhibitor Kazal type 7) | 0.14 |
| SPINK7 (serine peptidase inhibitor Kazal type 7) | 0.02 |
| SPINK7 (serine peptidase inhibitor Kazal type 7) | -0.93 |
| SPINK7 (serine peptidase inhibitor Kazal type 7) | -1.43 |
| CENPM (centromere protein M) | -0.52 |
| CENPM (centromere protein M) | -1.13 |
| CENPM (centromere protein M) | -0.36 |
| PCYT2 (phosphate cytidylyltransferase 2, ethanolamine) | -0.56 |
| PCYT2 (phosphate cytidylyltransferase 2, ethanolamine) | -0.52 |
| PCYT2 (phosphate cytidylyltransferase 2, ethanolamine) | -0.96 |
| PCYT2 (phosphate cytidylyltransferase 2, ethanolamine) | 0.42 |
| NADK2 (NAD kinase 2, mitochondrial) | 0.95 |
| NADK2 (NAD kinase 2, mitochondrial) | -0.66 |
| NADK2 (NAD kinase 2, mitochondrial) | -0.63 |
| NADK2 (NAD kinase 2, mitochondrial) | 0.05 |
| DRC9 (dynein regulatory complex subunit 9) | 0.21 |
| DRC9 (dynein regulatory complex subunit 9) | -0.25 |
| DRC9 (dynein regulatory complex subunit 9) | 0.24 |
| DRC9 (dynein regulatory complex subunit 9) | -0.13 |
| ABL2 (ABL proto-oncogene 2, non-receptor tyrosine kinase) | 3.68 (active) |
| ABL2 (ABL proto-oncogene 2, non-receptor tyrosine kinase) | -0.04 |
| ABL2 (ABL proto-oncogene 2, non-receptor tyrosine kinase) | 0.15 |
| ABL2 (ABL proto-oncogene 2, non-receptor tyrosine kinase) | 0.37 |
| ITGA1 (integrin subunit alpha 1) | -0.85 |
| ITGA1 (integrin subunit alpha 1) | -0.24 |
| ITGA1 (integrin subunit alpha 1) | -0.53 |
| ITGA1 (integrin subunit alpha 1) | -0.46 |
| C19orf44 (chromosome 19 open reading frame 44) | -0.63 |
| C19orf44 (chromosome 19 open reading frame 44) | -0.12 |
| C19orf44 (chromosome 19 open reading frame 44) | -0.32 |

The list goes on (6 carried over from the part before).
| Gene | TNF reporter robust z-score |
| --- | --- |
| ITGA1 (integrin subunit alpha 1) | -0.24 |
| ITGA1 (integrin subunit alpha 1) | -0.53 |
| ITGA1 (integrin subunit alpha 1) | -0.46 |
| C19orf44 (chromosome 19 open reading frame 44) | -0.63 |
| C19orf44 (chromosome 19 open reading frame 44) | -0.12 |
| C19orf44 (chromosome 19 open reading frame 44) | -0.32 |
| SSTR2 (somatostatin receptor 2) | -0.11 |
| SSTR2 (somatostatin receptor 2) | 1.57 |
| SSTR2 (somatostatin receptor 2) | 0.81 |
| SSTR2 (somatostatin receptor 2) | 0.62 |
| MRPL46 (mitochondrial ribosomal protein L46) | -0.02 |
| MRPL46 (mitochondrial ribosomal protein L46) | -0.07 |
| MRPL46 (mitochondrial ribosomal protein L46) | 0.5 |
| MRPL46 (mitochondrial ribosomal protein L46) | -1.65 (active) |
| NIPSNAP2 (nipsnap homolog 2) | -0.97 |
| NIPSNAP2 (nipsnap homolog 2) | -0.59 |
| NIPSNAP2 (nipsnap homolog 2) | -0.3 |
| NIPSNAP2 (nipsnap homolog 2) | -1.38 |
| MROH2B (maestro heat like repeat family member 2B) | -0.02 |
| MROH2B (maestro heat like repeat family member 2B) | -0.25 |
| MROH2B (maestro heat like repeat family member 2B) | -0.15 |
| MROH2B (maestro heat like repeat family member 2B) | 0.89 |
| PTPRR (protein tyrosine phosphatase receptor type R) | 0 |
| PTPRR (protein tyrosine phosphatase receptor type R) | -0.43 |
| PTPRR (protein tyrosine phosphatase receptor type R) | 0.99 |
| PTPRR (protein tyrosine phosphatase receptor type R) | 0.29 |
| C20orf204 (chromosome 20 open reading frame 204) | 2.16 |
| C20orf204 (chromosome 20 open reading frame 204) | -0.56 |
| C20orf204 (chromosome 20 open reading frame 204) | -1.38 |
| C20orf204 (chromosome 20 open reading frame 204) | -0.92 |
| ZSWIM4 (zinc finger SWIM-type containing 4) | -0.72 |
| ZSWIM4 (zinc finger SWIM-type containing 4) | -0.47 |
| ZSWIM4 (zinc finger SWIM-type containing 4) | -0.86 |
| ZSWIM4 (zinc finger SWIM-type containing 4) | 0.66 |
| TRIM36 (tripartite motif containing 36) | -0.13 |
| TRIM36 (tripartite motif containing 36) | -0.6 |
| TRIM36 (tripartite motif containing 36) | 1.04 |
| TRIM36 (tripartite motif containing 36) | 2.23 |
| KCNK5 (potassium two pore domain channel subfamily K member 5) | 0.11 |
| KCNK5 (potassium two pore domain channel subfamily K member 5) | 1.33 |
| KCNK5 (potassium two pore domain channel subfamily K member 5) | 1.11 |
| KCNK5 (potassium two pore domain channel subfamily K member 5) | 0.38 |
| CSTL1 (cystatin like 1) | 2.83 (active) |
| CSTL1 (cystatin like 1) | 1.47 |
| CSTL1 (cystatin like 1) | 0.95 |
| CSTL1 (cystatin like 1) | 1.6 |
| SSX2IP (SSX family member 2 interacting protein) | 0 |
| SSX2IP (SSX family member 2 interacting protein) | -0.27 |
| SSX2IP (SSX family member 2 interacting protein) | 0.31 |
| SSX2IP (SSX family member 2 interacting protein) | 0.11 |
| CLEC5A (C-type lectin domain containing 5A) | 1.41 |
| CLEC5A (C-type lectin domain containing 5A) | 1.05 |
| CLEC5A (C-type lectin domain containing 5A) | -0.75 |
| CLEC5A (C-type lectin domain containing 5A) | -0.44 |
| MTOR (mechanistic target of rapamycin kinase) | -0.85 |
| MTOR (mechanistic target of rapamycin kinase) | 0.13 |
| MTOR (mechanistic target of rapamycin kinase) | 1.05 |
| MTOR (mechanistic target of rapamycin kinase) | 0.88 |
| DPYS (dihydropyrimidinase) | -0.82 |
| DPYS (dihydropyrimidinase) | -0.68 |
| DPYS (dihydropyrimidinase) | -1.12 |
| DPYS (dihydropyrimidinase) | -0.19 |
